No constants are given. Whether binding was seen depends on the method and setting. Binding seen in cells or lysates may run through a third protein.
Biological target: T1, Mic60/Mitofilin (human) (UniProt Q16891)
T1 sequence: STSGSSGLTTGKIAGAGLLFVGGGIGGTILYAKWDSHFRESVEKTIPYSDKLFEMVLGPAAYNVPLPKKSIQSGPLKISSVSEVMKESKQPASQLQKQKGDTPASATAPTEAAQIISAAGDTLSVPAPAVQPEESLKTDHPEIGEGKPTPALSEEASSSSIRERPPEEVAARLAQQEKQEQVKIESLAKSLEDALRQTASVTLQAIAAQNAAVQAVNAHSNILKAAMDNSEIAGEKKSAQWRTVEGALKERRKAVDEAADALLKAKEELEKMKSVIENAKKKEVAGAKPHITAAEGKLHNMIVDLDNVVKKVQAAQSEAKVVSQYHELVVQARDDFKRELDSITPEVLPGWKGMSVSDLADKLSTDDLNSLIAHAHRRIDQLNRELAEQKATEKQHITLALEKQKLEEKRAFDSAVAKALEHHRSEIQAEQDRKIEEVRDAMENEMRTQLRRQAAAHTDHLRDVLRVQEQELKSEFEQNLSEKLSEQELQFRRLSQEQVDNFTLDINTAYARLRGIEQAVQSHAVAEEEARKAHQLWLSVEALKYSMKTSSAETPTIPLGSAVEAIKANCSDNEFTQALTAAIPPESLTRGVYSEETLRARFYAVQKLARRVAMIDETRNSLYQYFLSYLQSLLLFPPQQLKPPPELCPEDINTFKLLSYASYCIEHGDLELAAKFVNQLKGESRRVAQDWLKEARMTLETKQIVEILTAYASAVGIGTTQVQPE
Assay: co-IP; Mic60/Mitofilin targeted with specific antibodies; precipitates analysed by SDS-PAGE and western blot with Mic60/Mitofilin, Mic23/ApoO and Tim44 antibodies; PBS as negative control

binding: no binding
Substance: Tim44 (translocase of the inner mitochondrial membrane 44) (human)
